Results on one compound are retold here after US9249097B2, “3-aminocarbazole compound, pharmaceutical composition containing it and preparation method therefor” (AZIENDE CHIM. RIUN. ANG. FRANC. A.C.R.A.F. S.p.A., priority 2008, dated 2016).

As a reminder, the Papp is the rate of passage across a membrane or cell layer, normalised by area and donor concentration. The low end stands for slow passage, the high end for fast passage.

The series is described as follows: in vitro. The settings on record: human, Caco-2, pH 7.4. As to the method:
This test allows evaluation of the amount absorbed by the intestinal barrier of the compounds of the invention and of the comparative compounds using the Caco-2 cell line as an in vitro model of intestinal barrier. The permeability test on Caco-2 cells represents an in vitro system approved for predicting and estimating the in vivo intestinal absorption of a drug. When the Caco-2 cells are cultured on a porous filter for about 21 days, they have the capacity to differentiate into enterocytes.
The compounds undergoing the test were diluted from a 10 mM stock solution in HBSS to a final concentration of 10 μM. The system consisted of a confluent cellular monolayer in culture for 21-28 days. […]
The samples collected at the given time were analysed by HPLC-MS/MS, using an electrospray ion source in positive ionization and SRM (Single Reaction Mode). […]
The concentration data were used to calculate the apparent permeability values (Papp), and the mean and standard deviation of the Papp were calculated.
The flux ratio was calculated as Papp(B→A)/Papp(A→B). The recovery percentage was calculated as: (amount in the receiving compartment+amount in the donor compartment)/nominal amount
The area of the peaks of the test compounds were integrated and the results were expressed as the analyte area/internal standard area ratio and corrected for the dilution factor used during the preparation of the sample. […]

A value given as a limit tells only on which side of the number the result lay.

`CC(C)NCC(O)COc1ccc(CC(N)=O)cc1` (stereo not shown) [Atenolol, atenolol, reference compound] returned a Papp at 3600 seconds, 10 μM of less than 2 ×10⁻⁶ cm/s.
